No constants are given. Whether binding was seen depends on the method and setting. Binding seen in cells or lysates may run through a third protein. Some entries that bind do so weakly or less than the wild type. Sequences can lack the tags named with a protein.
T1: BAK1, co-receptor kinase, BiFC fusion (Arabidopsis thaliana) (UniProt Q94F62)
T1 sequence: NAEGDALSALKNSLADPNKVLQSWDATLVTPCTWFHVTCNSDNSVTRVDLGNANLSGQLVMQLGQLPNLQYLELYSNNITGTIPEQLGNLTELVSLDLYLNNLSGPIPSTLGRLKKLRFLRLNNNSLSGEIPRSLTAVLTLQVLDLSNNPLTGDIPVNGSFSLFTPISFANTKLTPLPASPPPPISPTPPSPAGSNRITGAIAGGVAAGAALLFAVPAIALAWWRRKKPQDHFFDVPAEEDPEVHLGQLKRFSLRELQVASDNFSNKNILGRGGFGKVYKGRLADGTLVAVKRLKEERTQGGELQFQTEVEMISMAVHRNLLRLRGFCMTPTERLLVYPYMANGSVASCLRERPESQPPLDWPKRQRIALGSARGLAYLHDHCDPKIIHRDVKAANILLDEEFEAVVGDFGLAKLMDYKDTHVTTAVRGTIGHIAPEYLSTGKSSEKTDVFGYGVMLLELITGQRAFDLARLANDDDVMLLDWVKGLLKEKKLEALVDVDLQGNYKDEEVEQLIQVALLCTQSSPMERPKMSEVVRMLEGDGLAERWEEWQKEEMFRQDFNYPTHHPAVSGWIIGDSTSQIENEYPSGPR

Protein sequences, listed by entry. Tags and fused reporters are not part of them.
UniProt Q9FIJ0: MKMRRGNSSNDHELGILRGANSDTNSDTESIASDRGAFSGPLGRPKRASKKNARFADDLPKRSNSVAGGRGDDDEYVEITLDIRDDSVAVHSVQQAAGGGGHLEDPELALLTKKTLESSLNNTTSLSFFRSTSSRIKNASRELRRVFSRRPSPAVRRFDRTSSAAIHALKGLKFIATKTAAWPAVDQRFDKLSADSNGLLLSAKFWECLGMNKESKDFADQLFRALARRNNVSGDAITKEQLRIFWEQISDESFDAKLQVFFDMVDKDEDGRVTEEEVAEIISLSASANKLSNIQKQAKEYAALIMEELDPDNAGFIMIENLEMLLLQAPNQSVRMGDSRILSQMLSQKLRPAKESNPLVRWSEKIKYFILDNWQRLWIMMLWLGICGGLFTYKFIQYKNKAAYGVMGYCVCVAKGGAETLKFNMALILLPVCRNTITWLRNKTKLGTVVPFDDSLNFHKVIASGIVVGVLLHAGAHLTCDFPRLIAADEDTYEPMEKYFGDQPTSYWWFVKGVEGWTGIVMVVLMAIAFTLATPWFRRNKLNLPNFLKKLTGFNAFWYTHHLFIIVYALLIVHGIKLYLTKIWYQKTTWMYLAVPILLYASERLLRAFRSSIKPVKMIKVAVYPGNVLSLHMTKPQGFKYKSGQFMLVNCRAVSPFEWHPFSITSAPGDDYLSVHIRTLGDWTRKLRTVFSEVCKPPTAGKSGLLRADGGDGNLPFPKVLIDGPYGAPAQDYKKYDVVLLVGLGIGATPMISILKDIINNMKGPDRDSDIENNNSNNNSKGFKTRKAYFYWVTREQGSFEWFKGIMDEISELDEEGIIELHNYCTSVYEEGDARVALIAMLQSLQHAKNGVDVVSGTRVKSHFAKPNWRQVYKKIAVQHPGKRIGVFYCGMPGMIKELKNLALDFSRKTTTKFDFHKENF
UniProt O48538: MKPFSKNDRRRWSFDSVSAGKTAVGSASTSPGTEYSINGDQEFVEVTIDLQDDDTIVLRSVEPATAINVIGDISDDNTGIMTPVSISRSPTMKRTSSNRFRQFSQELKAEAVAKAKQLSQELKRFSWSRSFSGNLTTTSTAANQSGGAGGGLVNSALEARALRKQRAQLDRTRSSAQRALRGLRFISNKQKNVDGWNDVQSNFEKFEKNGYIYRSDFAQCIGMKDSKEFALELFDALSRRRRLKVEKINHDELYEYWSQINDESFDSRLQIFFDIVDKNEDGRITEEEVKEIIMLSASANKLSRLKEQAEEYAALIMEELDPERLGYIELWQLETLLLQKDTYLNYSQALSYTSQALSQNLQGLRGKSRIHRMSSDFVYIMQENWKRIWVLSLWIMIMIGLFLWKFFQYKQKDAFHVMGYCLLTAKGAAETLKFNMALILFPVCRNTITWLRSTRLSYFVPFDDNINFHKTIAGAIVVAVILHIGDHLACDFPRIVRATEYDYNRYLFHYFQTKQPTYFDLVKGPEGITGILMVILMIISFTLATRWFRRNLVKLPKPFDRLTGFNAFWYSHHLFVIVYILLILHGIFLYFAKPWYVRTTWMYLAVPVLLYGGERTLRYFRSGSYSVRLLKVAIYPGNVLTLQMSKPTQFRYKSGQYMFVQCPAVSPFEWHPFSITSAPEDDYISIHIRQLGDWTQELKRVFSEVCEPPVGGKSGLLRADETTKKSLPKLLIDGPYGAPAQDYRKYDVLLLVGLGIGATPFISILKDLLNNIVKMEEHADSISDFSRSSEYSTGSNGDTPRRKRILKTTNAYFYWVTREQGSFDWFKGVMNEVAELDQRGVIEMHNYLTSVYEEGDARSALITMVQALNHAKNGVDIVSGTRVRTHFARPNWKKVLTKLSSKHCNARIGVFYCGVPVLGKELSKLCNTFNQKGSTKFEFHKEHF

T2: RBOHB, NADPH oxidase, BiFC fusion (Arabidopsis thaliana) (UniProt Q9SBI0)
T2 sequence: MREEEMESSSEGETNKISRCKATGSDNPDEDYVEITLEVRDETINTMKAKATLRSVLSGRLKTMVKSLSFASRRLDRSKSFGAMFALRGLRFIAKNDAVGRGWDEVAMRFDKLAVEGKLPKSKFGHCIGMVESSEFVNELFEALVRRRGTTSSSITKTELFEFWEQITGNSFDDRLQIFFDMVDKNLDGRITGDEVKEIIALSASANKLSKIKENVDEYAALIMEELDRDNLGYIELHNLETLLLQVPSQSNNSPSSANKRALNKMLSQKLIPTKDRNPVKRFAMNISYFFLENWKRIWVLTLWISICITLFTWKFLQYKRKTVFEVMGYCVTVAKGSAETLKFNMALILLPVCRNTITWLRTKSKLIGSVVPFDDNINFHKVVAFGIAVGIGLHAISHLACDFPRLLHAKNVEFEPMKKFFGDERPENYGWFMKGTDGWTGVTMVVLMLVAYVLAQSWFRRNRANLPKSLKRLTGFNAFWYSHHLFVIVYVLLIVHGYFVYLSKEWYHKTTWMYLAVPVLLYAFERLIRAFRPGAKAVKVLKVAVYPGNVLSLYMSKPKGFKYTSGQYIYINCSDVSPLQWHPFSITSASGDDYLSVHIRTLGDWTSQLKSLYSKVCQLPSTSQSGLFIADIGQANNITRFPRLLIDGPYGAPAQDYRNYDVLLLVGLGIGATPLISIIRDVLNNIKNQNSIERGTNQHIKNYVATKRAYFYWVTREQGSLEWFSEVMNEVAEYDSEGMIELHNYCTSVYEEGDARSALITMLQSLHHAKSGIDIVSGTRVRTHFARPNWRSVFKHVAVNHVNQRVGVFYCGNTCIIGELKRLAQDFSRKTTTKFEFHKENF

T3: RBOHC, NADPH oxidase, BiFC fusion (Arabidopsis thaliana) (UniProt O81210)
T3 sequence: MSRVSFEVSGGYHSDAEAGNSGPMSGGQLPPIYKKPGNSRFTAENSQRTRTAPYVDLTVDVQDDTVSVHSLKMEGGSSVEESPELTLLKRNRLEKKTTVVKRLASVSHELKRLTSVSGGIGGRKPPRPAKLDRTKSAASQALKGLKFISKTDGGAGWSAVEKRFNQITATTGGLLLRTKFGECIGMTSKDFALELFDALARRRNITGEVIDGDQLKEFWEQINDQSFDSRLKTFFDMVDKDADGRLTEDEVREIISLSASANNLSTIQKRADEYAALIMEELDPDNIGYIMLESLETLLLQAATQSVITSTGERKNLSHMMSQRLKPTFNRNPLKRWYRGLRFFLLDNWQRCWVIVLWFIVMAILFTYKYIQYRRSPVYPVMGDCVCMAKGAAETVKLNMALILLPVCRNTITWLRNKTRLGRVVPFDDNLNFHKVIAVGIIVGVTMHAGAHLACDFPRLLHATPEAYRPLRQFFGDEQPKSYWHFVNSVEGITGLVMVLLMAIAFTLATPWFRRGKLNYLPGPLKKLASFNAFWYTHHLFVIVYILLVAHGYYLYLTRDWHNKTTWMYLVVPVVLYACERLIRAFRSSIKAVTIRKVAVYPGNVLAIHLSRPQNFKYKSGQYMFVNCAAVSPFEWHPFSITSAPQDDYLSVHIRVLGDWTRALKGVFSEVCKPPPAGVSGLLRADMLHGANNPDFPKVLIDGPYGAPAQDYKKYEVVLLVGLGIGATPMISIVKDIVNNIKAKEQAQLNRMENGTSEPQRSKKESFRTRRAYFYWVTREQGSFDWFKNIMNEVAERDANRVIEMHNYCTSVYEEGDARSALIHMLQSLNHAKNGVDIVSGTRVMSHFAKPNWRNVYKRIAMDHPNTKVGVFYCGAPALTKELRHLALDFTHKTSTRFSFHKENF

T4: SGN3, receptor-like kinase, BiFC fusion (Arabidopsis thaliana) (UniProt C0LGQ5)
T4 sequence: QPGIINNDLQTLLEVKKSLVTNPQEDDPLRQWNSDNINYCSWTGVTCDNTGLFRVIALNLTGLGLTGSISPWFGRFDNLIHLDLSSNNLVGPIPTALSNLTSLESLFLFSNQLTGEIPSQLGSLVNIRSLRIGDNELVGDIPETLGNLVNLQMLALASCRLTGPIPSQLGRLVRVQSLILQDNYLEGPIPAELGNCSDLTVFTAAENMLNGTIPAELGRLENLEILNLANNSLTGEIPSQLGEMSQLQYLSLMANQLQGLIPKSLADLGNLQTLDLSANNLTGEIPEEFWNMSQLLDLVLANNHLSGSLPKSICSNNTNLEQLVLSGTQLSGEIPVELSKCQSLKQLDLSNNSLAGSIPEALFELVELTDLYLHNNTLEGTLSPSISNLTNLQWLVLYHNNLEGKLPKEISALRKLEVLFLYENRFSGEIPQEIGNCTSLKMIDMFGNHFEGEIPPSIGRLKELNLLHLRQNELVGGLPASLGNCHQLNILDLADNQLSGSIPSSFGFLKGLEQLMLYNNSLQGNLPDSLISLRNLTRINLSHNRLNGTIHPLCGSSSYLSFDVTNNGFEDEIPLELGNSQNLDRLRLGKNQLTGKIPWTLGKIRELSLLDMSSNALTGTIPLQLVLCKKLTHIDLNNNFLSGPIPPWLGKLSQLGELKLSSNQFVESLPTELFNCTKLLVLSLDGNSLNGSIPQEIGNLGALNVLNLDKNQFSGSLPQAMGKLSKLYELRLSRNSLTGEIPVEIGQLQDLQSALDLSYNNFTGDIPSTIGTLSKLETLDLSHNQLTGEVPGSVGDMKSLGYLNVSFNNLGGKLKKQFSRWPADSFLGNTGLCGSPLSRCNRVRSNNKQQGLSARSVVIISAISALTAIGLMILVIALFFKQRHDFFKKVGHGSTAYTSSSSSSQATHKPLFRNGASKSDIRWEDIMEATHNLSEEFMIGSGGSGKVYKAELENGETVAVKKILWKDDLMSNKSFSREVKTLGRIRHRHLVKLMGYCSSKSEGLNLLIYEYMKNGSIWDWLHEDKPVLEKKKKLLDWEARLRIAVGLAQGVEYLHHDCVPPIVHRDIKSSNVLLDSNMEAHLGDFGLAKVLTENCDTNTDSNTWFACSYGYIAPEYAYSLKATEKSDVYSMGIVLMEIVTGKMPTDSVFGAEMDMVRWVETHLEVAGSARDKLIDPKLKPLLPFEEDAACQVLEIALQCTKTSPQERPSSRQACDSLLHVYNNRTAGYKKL

T5: RBOHC, epitope-tagged, expressed in Arabidopsis protoplasts (Arabidopsis thaliana) (UniProt O81210)
T5 sequence: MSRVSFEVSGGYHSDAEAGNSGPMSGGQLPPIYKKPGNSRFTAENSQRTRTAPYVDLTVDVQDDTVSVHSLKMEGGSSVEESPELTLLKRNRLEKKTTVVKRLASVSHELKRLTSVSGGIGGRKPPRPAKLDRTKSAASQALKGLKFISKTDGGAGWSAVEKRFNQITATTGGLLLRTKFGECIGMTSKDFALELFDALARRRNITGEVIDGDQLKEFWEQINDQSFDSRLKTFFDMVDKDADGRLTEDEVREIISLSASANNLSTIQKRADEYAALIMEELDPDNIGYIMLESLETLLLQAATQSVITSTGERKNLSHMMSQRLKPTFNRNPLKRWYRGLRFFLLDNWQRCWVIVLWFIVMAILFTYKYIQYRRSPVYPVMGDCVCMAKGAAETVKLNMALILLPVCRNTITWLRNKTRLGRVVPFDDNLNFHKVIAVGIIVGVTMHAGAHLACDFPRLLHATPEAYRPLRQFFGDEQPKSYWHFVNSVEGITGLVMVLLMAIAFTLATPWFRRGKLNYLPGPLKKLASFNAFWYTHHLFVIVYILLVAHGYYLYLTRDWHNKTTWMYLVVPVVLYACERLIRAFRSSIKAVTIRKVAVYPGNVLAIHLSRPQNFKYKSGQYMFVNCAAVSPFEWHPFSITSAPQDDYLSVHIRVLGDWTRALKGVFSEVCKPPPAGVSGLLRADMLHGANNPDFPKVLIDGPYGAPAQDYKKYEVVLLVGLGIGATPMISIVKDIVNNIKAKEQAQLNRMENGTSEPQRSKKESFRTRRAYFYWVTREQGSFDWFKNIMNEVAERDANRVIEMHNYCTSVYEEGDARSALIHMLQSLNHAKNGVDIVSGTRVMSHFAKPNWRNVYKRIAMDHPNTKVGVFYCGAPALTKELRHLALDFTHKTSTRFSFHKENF


What was measured:
[1] = target: T1, BAK1, co-receptor kinase, BiFC fusion (Arabidopsis thaliana); assay: split reporter
[2] = target: T2, RBOHB, NADPH oxidase, BiFC fusion (Arabidopsis thaliana); assay: split reporter
[3] = target: T3, RBOHC, NADPH oxidase, BiFC fusion (Arabidopsis thaliana); assay: split reporter
[4] = target: RBOHD, NADPH oxidase, BiFC fusion (Arabidopsis thaliana) (UniProt Q9FIJ0); assay: split reporter
[5] = target: RBOHF, NADPH oxidase, BiFC fusion (Arabidopsis thaliana) (UniProt O48538); assay: split reporter
[6] = target: T4, SGN3, receptor-like kinase, BiFC fusion (Arabidopsis thaliana); assay: split reporter
[7] = target: T5, RBOHC, epitope-tagged, expressed in Arabidopsis protoplasts (Arabidopsis thaliana); assay: co-IP
[8] = target: RBOHD, epitope-tagged, expressed in Arabidopsis protoplasts (Arabidopsis thaliana) (UniProt Q9FIJ0); assay: co-IP
[9] = target: RBOHF, epitope-tagged, expressed in Arabidopsis protoplasts (Arabidopsis thaliana) (UniProt O48538); assay: co-IP

| binding [1] | binding [2] | binding [3] | binding [4] | binding [5] | binding [6] | binding [7] | binding [8] | binding [9] | Binder |
| --- | --- | --- | --- | --- | --- | --- | --- | --- | --- |
| no binding | no binding | binds | binds | binds | binds | – | – | – | LKS4 (low-K+ sensitive 4), receptor-like cytoplasmic kinase, BiFC fusion (enzyme, UniProt Q9SY91 1-424) MRDSSTTASTKSSPLWKPFASNCCSVDDQTVFGNLSRCRPSRSEFSKNHLGPLPSFRRLSFADLSRSSSARINEDLAQTLGADLVDFQMCELKMITQSFSGNYLLGEGGFGKVYKGYVDDYLRQSLKAQPVAVKLLDIEGLQGHREWLSEVIFLGQLKHPNLVKLIGYCCEEEERVLIYEFMPRGSLENHLFRRISLSLPWATRLKIAVAAAKGLAFLHDLESPIIYRDFKTSNILLDSDFTAKLSDFGLAKMGPEGSKSHVTTRVMGTYGYAAPEYVSTGHLTTKSDVYSYGVVLLELLTGRRATEKSRPKNQQNIIDWSKPYLTSSRRLRCVMDPRLAGQYSVKAAKDTALLALQCVSPNPKDRPKMLAVVEALESLIHYKDMAVSSGHWPLSPKSQGGKVSPKVRGDHRSGRKSAPGSLRS |
| – | – | – | – | – | – | binds | binds | binds | LKS4, epitope-tagged, expressed in Arabidopsis protoplasts (enzyme, UniProt Q9SY91 1-424) MRDSSTTASTKSSPLWKPFASNCCSVDDQTVFGNLSRCRPSRSEFSKNHLGPLPSFRRLSFADLSRSSSARINEDLAQTLGADLVDFQMCELKMITQSFSGNYLLGEGGFGKVYKGYVDDYLRQSLKAQPVAVKLLDIEGLQGHREWLSEVIFLGQLKHPNLVKLIGYCCEEEERVLIYEFMPRGSLENHLFRRISLSLPWATRLKIAVAAAKGLAFLHDLESPIIYRDFKTSNILLDSDFTAKLSDFGLAKMGPEGSKSHVTTRVMGTYGYAAPEYVSTGHLTTKSDVYSYGVVLLELLTGRRATEKSRPKNQQNIIDWSKPYLTSSRRLRCVMDPRLAGQYSVKAAKDTALLALQCVSPNPKDRPKMLAVVEALESLIHYKDMAVSSGHWPLSPKSQGGKVSPKVRGDHRSGRKSAPGSLRS |

From doi:10.1101/2020.03.21.000570
